Measured values: article PMC10632493
No constants are given. Whether binding was seen depends on the method and setting. In cells and extracts the contact can be indirect. These calls come from enrichment with a bait or labelling near it, and not all partners need be listed.

Chains of the proteins cited; added tags and fusions are not shown.
UniProt Q9C0C2: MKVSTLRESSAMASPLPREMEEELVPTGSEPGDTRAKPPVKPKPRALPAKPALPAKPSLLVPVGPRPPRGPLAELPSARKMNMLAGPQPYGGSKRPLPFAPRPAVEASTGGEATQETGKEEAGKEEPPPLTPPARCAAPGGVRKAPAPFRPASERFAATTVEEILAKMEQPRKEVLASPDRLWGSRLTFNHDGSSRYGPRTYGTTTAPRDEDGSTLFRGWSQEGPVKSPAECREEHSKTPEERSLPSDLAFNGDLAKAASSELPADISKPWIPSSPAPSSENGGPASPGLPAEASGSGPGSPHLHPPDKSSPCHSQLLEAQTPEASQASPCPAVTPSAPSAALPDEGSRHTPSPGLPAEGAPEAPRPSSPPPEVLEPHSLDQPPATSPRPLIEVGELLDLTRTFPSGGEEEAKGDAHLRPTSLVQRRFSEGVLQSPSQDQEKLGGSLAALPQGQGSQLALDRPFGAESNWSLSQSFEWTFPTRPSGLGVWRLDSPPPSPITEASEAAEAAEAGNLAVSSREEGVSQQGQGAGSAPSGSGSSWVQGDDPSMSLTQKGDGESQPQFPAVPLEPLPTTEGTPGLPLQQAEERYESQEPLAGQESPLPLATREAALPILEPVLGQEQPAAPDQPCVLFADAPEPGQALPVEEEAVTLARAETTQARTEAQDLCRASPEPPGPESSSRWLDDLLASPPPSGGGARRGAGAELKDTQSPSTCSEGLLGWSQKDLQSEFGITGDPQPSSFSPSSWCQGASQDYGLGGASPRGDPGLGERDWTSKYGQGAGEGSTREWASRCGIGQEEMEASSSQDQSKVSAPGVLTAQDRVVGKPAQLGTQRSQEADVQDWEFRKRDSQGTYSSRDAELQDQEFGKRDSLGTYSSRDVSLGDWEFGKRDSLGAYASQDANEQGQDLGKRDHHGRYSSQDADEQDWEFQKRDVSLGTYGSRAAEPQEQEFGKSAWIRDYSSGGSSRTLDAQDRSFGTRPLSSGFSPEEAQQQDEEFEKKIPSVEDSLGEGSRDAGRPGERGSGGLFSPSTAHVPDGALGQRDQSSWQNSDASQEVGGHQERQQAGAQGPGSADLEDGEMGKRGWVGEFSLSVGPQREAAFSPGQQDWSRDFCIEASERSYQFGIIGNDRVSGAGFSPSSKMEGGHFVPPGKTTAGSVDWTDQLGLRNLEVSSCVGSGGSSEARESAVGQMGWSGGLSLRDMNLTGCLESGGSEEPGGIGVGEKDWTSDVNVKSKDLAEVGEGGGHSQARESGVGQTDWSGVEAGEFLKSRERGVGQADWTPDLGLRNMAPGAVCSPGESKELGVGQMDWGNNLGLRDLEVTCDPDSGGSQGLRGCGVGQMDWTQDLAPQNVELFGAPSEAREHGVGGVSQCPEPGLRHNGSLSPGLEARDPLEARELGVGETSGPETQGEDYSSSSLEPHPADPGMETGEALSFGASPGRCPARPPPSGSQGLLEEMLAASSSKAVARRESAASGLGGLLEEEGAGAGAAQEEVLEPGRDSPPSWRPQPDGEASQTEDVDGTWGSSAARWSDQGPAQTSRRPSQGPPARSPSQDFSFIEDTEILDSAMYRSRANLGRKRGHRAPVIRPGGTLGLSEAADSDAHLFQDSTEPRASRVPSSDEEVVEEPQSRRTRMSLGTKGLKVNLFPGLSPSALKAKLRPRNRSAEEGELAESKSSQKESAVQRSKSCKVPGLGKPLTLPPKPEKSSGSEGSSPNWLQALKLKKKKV

Biological target: Flag-epitope-tagged RNF166 (FlagRNF166) (UniProt Q96A37)
Experiment: affinity purification with mass spectrometry; cells transfected with FlagRNF166 alone, FlagRNF166 plus TNKS1, or FlagBAP plus TNKS1 (TNKS1/2 DKO cells by the results, HEK293T by the methods); anti-Flag beads, elution with 3xFlag peptide; LC-MS/MS

- binding: binds
Substance: endogenous tankyrase binding protein 1, TNKSBP1 (TAB182) (from UniProt Q9C0C2 1-1729)
